Test results published in patent US20210033600A1.
No constants are given. Whether binding was seen depends on the method and setting. Some results given as binding are weak or reduced against the parent protein; the word gives no strength.

By UniProt entry, the sequences of proteins in these tests, tags left out. Where a name states a change or a piece, a line headed by the entry shows the natural chain unless it says otherwise. Chains listed by the source or under a name are the forms on record and can include a tag or linker.
recombinant human ST2 (Q01638, form named): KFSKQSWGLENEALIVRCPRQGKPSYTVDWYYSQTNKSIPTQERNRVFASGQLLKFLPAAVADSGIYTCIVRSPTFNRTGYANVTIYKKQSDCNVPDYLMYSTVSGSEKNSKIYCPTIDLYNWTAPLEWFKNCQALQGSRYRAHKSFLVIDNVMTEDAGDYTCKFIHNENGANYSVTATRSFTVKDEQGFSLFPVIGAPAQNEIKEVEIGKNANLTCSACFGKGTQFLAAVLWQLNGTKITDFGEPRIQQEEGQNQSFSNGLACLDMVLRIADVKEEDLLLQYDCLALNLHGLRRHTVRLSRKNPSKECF

Assays:
[1] = target: T1, recombinant human IL-33 (human) (UniProt O95760); assay: ECL sandwich immunoassay; recombinant IL-33 at 36 pg/mL with increasing recombinant soluble ST2; interference with detection
T1 sequence (looked up): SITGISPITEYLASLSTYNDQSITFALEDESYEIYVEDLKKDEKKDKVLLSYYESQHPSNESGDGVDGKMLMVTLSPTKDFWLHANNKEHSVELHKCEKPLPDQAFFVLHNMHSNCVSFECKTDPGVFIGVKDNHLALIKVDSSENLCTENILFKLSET

[2] = target: T2, endogenous IL-33 in human serum (human) (UniProt O95760); assay: ECL sandwich immunoassay (C-AD, acid treated) on human serum; excess rhST2 added with detection reagent
T2 sequence (looked up): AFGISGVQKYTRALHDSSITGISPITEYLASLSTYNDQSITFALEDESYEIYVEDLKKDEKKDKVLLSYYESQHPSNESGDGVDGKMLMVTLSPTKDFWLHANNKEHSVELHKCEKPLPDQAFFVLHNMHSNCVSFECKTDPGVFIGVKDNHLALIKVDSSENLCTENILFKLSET

“recombinant human ST2 (from UniProt Q01638 19-328) (receptor)” was tested, and the binding [1] was “binds” and the binding [2] was “binds”.
